# Earlier results, collected in patent US20170333404A1, “IMPROVED FORMULATIONS OF VEMURAFENIB AND METHODS OF MAKING THE SAME” (DISPERSOL TECHNOLOGIES, LLC, priority 2014, published 2017).
# At least one structure is not confirmed: it was looked up by name or label, or the drawing left a doubt.
# Test system: BRAFV600E/K mutant advanced or malignant melanoma
compound,measurement,setting,value
CC(=O)Nc1cccc(-n2c(=O)n(C3CC3)c(=O)c3c(Nc4ccc(I)cc4F)n(C)c(=O)c(C)c32)c1 [Trametinib],confirmed overall response rate,2 mg QD,24%
same,median progression free survival,"primary population, 2 mg QD",4.8 mo
same,HR for progression free survival by investigator,"primary population, Trametinib 2 mg QD vs chemotherapy",0.44
same,HR for interim overall survival,"primary population, vs chemotherapy",0.53
